Measured values reported in PubChem BioAssay AID504444 (National Center for Advancing Translational Sciences (NCATS), 2011).
Screen size: about 360,000 compounds; about 7,500 (2.1%) were called active. The shares of active, inactive and inconclusive entries below differ from those in the screen. Calls follow the shape of the dose curve; as a rule, active = well fitted inhibition curve with a large enough effect; inconclusive = small, poorly fitted or top-dose-only effect, or effect the other way; inactive = flat fitted curve, though single readings scatter. A potency beside an inconclusive call is a rough fit, not a confirmed value.

Assay: Nrf2 qHTS screen for inhibitors; also: nearly all actives have a fitted effect of over 60% in size
Conditions: A549 ARE-Fluc reporter, luciferase luminescence, 18-24 h; activity change, negative = inhibition: at 46 µM (top of the series)
Outline: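 Cells were seeded and rested 2 h, then exposed to compounds for 18-24 h. CellTiter-Fluor was read first as a viability measure. BugLite was added 15 min before the final luminescent read of ARE-luciferase activity in A549 cells.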
% is scaled to controls: 0 for no effect and ±100 for the full control effect; potency is read from the fitted curve at half-maximal effect.

For `CC(C)Oc1ccc(OCCNC2CCCC2)cc1`, which Potency is on record?
The Potency was inconclusive: 23.1 µM [activator, single point].

Which Potency does the source give for `O=C(COc1ccc(S(=O)(=O)Nc2ccccc2)cc1)NCc1cccnc1` here?
Its Potency is inconclusive: 18.4 µM [falling, partial curve, poor fit].

Which Potency does the source give for `C[C@@H](C(=O)NCc1ccccc1)[C@H]1C[C@]1(C)[C@H](NC(=O)OCc1ccccc1)c1ccccc1` here?
The Potency was inconclusive: 32.6 µM [falling, single point].

Which Potency does the source give for `CCCCn1nc2cc(C(=O)NCc3cc(C(F)(F)F)cc(C(F)(F)F)c3)ccc2c1OC` here?
Its Potency is inconclusive: 2.06 µM [falling, full curve].

With `Oc1ccccc1C(=S)N1CCN(C(=S)c2ccccc2O)CC1` as the molecule, how does the “activity change, negative = inhibition” value read?
Its value is inactive: -10.7%.

For `O=[N+]([O-])c1ccc(S(=O)(=O)Nc2nc3ccccc3nc2Nc2ccccc2)cc1`, which Potency is on record?
Its Potency is inconclusive: 25.9 µM [falling, single point].

With `CCOC(=O)c1cccc(NC(=O)c2cc(-c3ccc(Cl)s3)nc3ccccc23)c1` as the molecule, how does the “activity change, negative = inhibition” value read?
The value was inactive: 5.1%.

For `Cc1ccc(NS(=O)(=O)c2ccc(C(=O)N3CCCCCCC3)cc2)cc1`, which Potency is on record?
The Potency was active: 20.6 µM.

Which “activity change, negative = inhibition” value does the source give for `CCc1ccc(CN(C)CC(=O)Nc2ccccc2[N+](=O)[O-])cc1` here?
Its value is inactive: 8.54%.

Which Potency does the source give for `O=C(NCCc1ccccc1)c1ccc(CSc2nc3ccncc3n2Cc2ccccc2)cc1` here?
The Potency was inconclusive: 18.4 µM [falling, partial curve, poor fit].

With `COc1ccc(NC(=O)Cn2ncc3c([nH]c4ccccc43)c2=O)cc1Cl` as the molecule, how does the Potency read?
The Potency was inconclusive: 20.6 µM [activator, partial curve].

Which Potency does the source give for `O=C(CCNc1ccc(Cc2ccncc2)cc1)c1ccc([N+](=O)[O-])cc1` here?
Its Potency is inconclusive: 29.1 µM [falling, single point].

With `CCOC(=O)CC1C(=O)NCCN1c1nc2ccc(C)cn2c(=O)c1/C=C1\SC(=S)N(CC(C)C)C1=O` (stereo not given) as the molecule, how does the Potency read?
Its Potency is inconclusive: 23.1 µM [falling, single point].

With `O=C(Cn1nc(C(F)(F)F)c2c1CCCC2)Nc1ccc(Cl)cc1` as the molecule, how does the Potency read?
Its Potency is inconclusive: 20.6 µM [falling, single point].

For `O=C(c1sc2cccc(Cl)c2c1Cl)N1CCN(CCc2ccccn2)CC1`, which “activity change, negative = inhibition” value is on record?
Its value is inactive: -10.8%.

With `CSc1ccccc1NC(=O)CN(C)C(C)C(=O)Nc1ccc(C#N)cc1` (stereo not given) as the molecule, how does the Potency read?
Its Potency is inconclusive: 0.184 µM [falling, full curve, poor fit].

With `O=C(Cn1ccc2ccccc2c1=O)NCCC(=O)N1CCN(c2cccc(C(F)(F)F)c2)CC1` as the molecule, how does the Potency read?
The Potency was inconclusive: 18.4 µM [falling, partial curve, poor fit].

With `CC1CCN(S(=O)(=O)c2ccccc2[N+](=O)[O-])CC1` as the molecule, how does the Potency read?
Its Potency is inconclusive: 14.6 µM [falling, partial curve, poor fit].

Which Potency does the source give for `O=C(Cc1ccc(-c2ccccc2)cc1)NNC(=S)NCc1ccco1` here?
The Potency was inconclusive: 29.1 µM [falling, single point].

With `COc1ccc(C2=NN(C(=O)c3cccs3)C(c3ccccc3OC)C2)cc1OC` (stereo not given) as the molecule, how does the Potency read?
The Potency was inconclusive: 29.1 µM [falling, single point].

Which Potency does the source give for `Cc1cc(C)c(C(=O)OCCNC(=O)c2cccnc2)cc1C` here?
The Potency was inconclusive: 20.6 µM [falling, partial curve].

Which Potency does the source give for `O=C(N/N=C1/C(=O)c2cccc3cccc1c23)c1ccc(Cl)cc1` here?
Its Potency is inconclusive: 0.116 µM [activator, full curve, poor fit].

For `Nc1nonc1-c1noc(CCCCCN2C(=O)c3ccccc3C2=O)n1`, which Potency is on record?
The Potency was inconclusive: 14.6 µM [activator, partial curve].

For `CSc1cccc(CN2CCN(Cc3ccc(F)c(F)c3)C(CCO)C2)c1` (stereo not given), which Potency is on record?
The Potency was inconclusive: 29.1 µM [activator, partial curve, poor fit].

Which “activity change, negative = inhibition” value does the source give for `NS(=O)(=O)c1ccc(NC(=O)c2ccc(S(=O)(=O)N3CCc4ccccc43)cc2)cc1` here?
Its value is inactive: -6.54%.

For `CC(C)Sc1ncc(Cl)c(C(=O)Nc2ccc(S(=O)(=O)N3CCCCC3C)cc2)n1` (stereo not given), which “activity change, negative = inhibition” value is on record?
Its value is inactive: -8.04%.

Which Potency does the source give for `COc1ccc(OC)c(CNC(=O)c2cccc(NC(=O)N3CCSc4ncccc43)c2)c1` here?
The Potency was inconclusive: 20.6 µM [falling, single point].

With `Cc1cc2n(n1)C(c1ccc(N(C)C)cc1)Nc1ccccc1-2` (stereo not given) as the molecule, how does the Potency read?
Its Potency is inconclusive: 32.6 µM [falling, single point].

Which Potency does the source give for `O=C(COc1ccccc1)Nc1nc(-c2ccc(S(=O)(=O)N3CCOCC3)cc2)cs1` here?
Its Potency is inconclusive: 32.6 µM [falling, single point].

With `COc1ccc(C2CC(c3ccccc3)Oc3cc(C)cc(C)c32)cc1` (stereo not given) as the molecule, how does the Potency read?
The Potency was “inactive”.

Which Potency does the source give for `COc1ccccc1N1CCN(CC(=O)Nc2ccc(Cl)c(C(F)(F)F)c2)CC1` here?
Its Potency is inconclusive: 14.6 µM [falling, single point].

For `CC(=O)Nc1ccc(N=Nc2ccccc2)cc1[N+](=O)[O-]`, which Potency is on record?
Its Potency is inconclusive: 20.6 µM [activator, partial curve].

For `O=C(/C=C/c1ccc(Cl)c(Cl)c1)Nc1cccnc1`, which Potency is on record?
The Potency was inconclusive: 7.31 µM [activator, single point].

With `CN(c1ccccc1)S(=O)(=O)c1cccc(C(=O)Nc2nccs2)c1` as the molecule, how does the “activity change, negative = inhibition” value read?
The value was inactive: 5.93%.

Which Potency does the source give for `O=C(CCl)N(Cc1cc(=O)[nH]c2ccccc12)c1ccccc1` here?
The Potency was active: 23.1 µM.

For `Cc1nc(-c2ccccc2)nn1-c1ccc([N+](=O)[O-])cc1`, which Potency is on record?
Its Potency is inconclusive: 18.4 µM [activator, partial curve].

For `CCc1cc(=O)oc2cc(C)cc(OCC(=O)NCc3ccccn3)c12`, which Potency is on record?
Its Potency is inconclusive: 3.66 µM [activator, partial curve, poor fit].

For `COC(=O)C1=C(C(=O)OC)[C@]2([C@H]3CC=CCN[C@@H](Cc4ccccc4)C(=O)N3Cc3ccccc3)C=C[C@H]1O2`, which Potency is on record?
The Potency was inconclusive: 20.6 µM [falling, single point].

Which Potency does the source give for `Cc1ccc(-c2[nH]ncc2/C=N/n2c(COc3ccccc3C)nc3ccccc3c2=O)cc1` here?
Its Potency is inconclusive: 32.6 µM [falling, single point].

For `CCOc1ccc(N(CC(=O)Nc2ccc(C)c(Cl)c2)S(C)(=O)=O)cc1`, which Potency is on record?
Its Potency is inconclusive: 29.1 µM [activator, single point].

Which Potency does the source give for `Cc1ccc(NC(=O)c2cc3c(=O)n(Cc4cccnc4)ccc3nc2C)cc1F` here?
The Potency was inconclusive: 1.16 µM [falling, partial curve, poor fit].

With `COc1ccc(OC(C)C(=O)NCc2nc(-c3ccc(Cl)cc3)no2)cc1` (stereo not given) as the molecule, how does the Potency read?
Its Potency is inconclusive: 16.4 µM [falling, single point].

For `CCOC(=O)CSc1c(-c2ccccc2)c2cc(Cl)ccc2[nH]c1=O`, which Potency is on record?
The Potency was inconclusive: 29.1 µM [falling, single point].

Which Potency does the source give for `COc1ccc2c(C(=O)CCl)c[nH]c2c1` here?
Its Potency is inconclusive: 29.1 µM [falling, single point].

With `CCN(CC)c1ccc(NC(=O)c2ccc(=O)[nH]c2)cc1S(=O)(=O)Nc1ccccc1OC` as the molecule, how does the Potency read?
Its Potency is inconclusive: 9.2 µM [activator, partial curve, poor fit].

With `Cc1nc2ccccc2n1Cc1ccccc1` as the molecule, how does the Potency read?
The Potency was active: 20.6 µM.

For `Cc1ccc(NC(=O)Cn2cc(S(=O)(=O)N3CCCC3)c(S(=O)(=O)N3CCCC3)c2)c(C)c1`, which Potency is on record?
Its Potency is inconclusive: 29.1 µM [activator, single point].

With `Cc1occc1C(=O)N1CCN(c2ccc(Cl)c(Cl)c2)CC1` as the molecule, how does the Potency read?
The Potency was inconclusive: 6.51 µM [falling, partial curve, poor fit].

Which Potency does the source give for `O=C(CN(C(=O)CNC(=O)c1ccco1)c1ccc(Cl)c(Cl)c1)NC1CCCCC1` here?
The Potency was inconclusive: 0.0041 µM [falling, full curve, poor fit].

Which Potency does the source give for `COCCn1c(C)cc(C(=O)Cn2nc(C(=O)O)c3ccccc3c2=O)c1C` here?
The Potency was inconclusive: 10.3 µM [falling, partial curve].

Which Potency does the source give for `COc1ccc(C(=O)Nc2ccc3[nH]ncc3c2)cc1OC` here?
The Potency was inconclusive: 32.6 µM [activator, single point].

With `c1ccc(C(=NNc2nc3ccccc3s2)c2ccccn2)cc1` as the molecule, how does the Potency read?
Its Potency is active: 9.2 µM.

Which Potency does the source give for `CCC(c1ccc(O)c(O)c1)C(CC)c1ccc(O)c(O)c1` (stereo not given) here?
Its Potency is inconclusive: 32.6 µM [falling, partial curve, poor fit].

Which Potency does the source give for `C=CC[n+]1c(-c2ccc(OC)c(OC)c2)csc1NNC(=O)Nc1ccccc1` here?
Its Potency is active: 13 µM.

For `CCOc1ccccc1N(C)C(=O)NCc1noc2ccccc12`, which Potency is on record?
The Potency was inconclusive: 29.1 µM [activator, single point].

Which Potency does the source give for `O=C(NCc1cccs1)C1CC1` here?
Its Potency is inconclusive: 5.8 µM [activator, partial curve, poor fit].

For `CCN(CC(=O)Nc1cc(Cl)ccc1C)C(=O)CCS(=O)(=O)c1ccc(Cl)cc1`, which “activity change, negative = inhibition” value is on record?
Its value is inactive: -9.43%.

With `CCn1cc(C(=O)NC(C)c2ccccc2)c(=O)c2cc(S(=O)(=O)N3CCc4ccccc4C3)ccc21` (stereo not given) as the molecule, how does the “activity change, negative = inhibition” value read?
Its value is inactive: -9.63%.

With `Clc1cccc(N=C2NN=C(c3ccc4c(c3)OCCO4)CS2)c1` as the molecule, how does the Potency read?
Its Potency is active: 5.17 µM.

Which Potency does the source give for `COc1ccc(NC(=O)CSc2nnc(-c3ccccc3C)n2C)cc1` here?
The Potency was inconclusive: 0.0731 µM [falling, full curve, poor fit].

Which “activity change, negative = inhibition” value does the source give for `CC1CCN(Cc2c(C(=O)N/N=C/c3cc(Cl)ccc3O)nnn2-c2nonc2N)CC1` here?
Its value is inactive: -24.6%.

For `COCCCC1CCN(Cc2nc(-c3ccccc3)no2)CC1`, which Potency is on record?
Its Potency is inconclusive: 6.51 µM [activator, partial curve].

For `O=C(Cc1cccs1)N1CCCC(c2nc(-c3ccc(S(=O)(=O)N4CCCC4)cc3)no2)C1` (stereo not given), which Potency is on record?
Its Potency is active: 23.1 µM.

With `CC(=O)c1ccc(N2CCN(c3ccc(C(F)(F)F)cn3)CC2)cc1` as the molecule, how does the Potency read?
The Potency was active: 9.2 µM.

Which Potency does the source give for `O=C(NC1CCCCCC1)C1CCC(=O)N(Cc2ccccc2F)C1` (stereo not given) here?
Its Potency is inconclusive: 23.1 µM [activator, single point].
